Here are results for 62 molecules from the supplement of paper PMC4807443.

Structures can show the parent of a compound that is named as a salt. The list shows a part of the results. The numbers are fractions of the control, whatever unit the source prints. Most values lie at the level of the controls, where differences are scatter.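 A lentiviral reporter stably expressed in MIN6 mouse insulinoma beta cells uses Pdx1 and Ins1 promoters to drive separate nucleus-targeted fluorescent proteins; automated imaging with Hoechst nuclear stain counted cells. Possible hits were drugs shifting Ins1 promoter signal more than two median absolute deviations from DMSO controls, with Pdx1 activity roughly normal.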

In this assay the test system is MIN6. The assay is described as follows: % Pdx1+ Ins1-low (RFP-only, immature) cells relative to DMSO control (fold of DMSO control); higher = more immature Pdx1+/Ins1-low cells. The following applies: 8.5 µM; 48 h; glucose 5 mM.
Consider `COC1=C[C@@H]2C3=C([C@@H]2C1=O)[C@@H](NC(C)=O)CCc1cc(OC)c(OC)c(OC)c13` [Lumicolchicine gamma], for which the “% Pdx1+ Ins1-low” value came to 0.522.
In the case of `C[N+]12CCC(CC1)C(OC(=O)C(O)(c1ccccc1)c1ccccc1)C2` (configuration not stated) [Clidinium bromide], the “% Pdx1+ Ins1-low” value stood at 0.914.
Turning to `CCN1C[C@]2(COC)CC[C@H](O)[C@@]34C5C[C@@H]6[C@@H](OC)C[C@](O)(C(CC23)C14)C5[C@H]6OC(C)=O` (some centres not stated) [Condelphine], the “% Pdx1+ Ins1-low” value worked out at 0.946.
For `CC[C@H]1CN2CCc3cc(OC)c(OC)cc3[C@@H]2C[C@@H]1C[C@H]1NCCc2cc(OC)c(OC)cc21` [Emetine dihydrochloride], the “% Pdx1+ Ins1-low” value worked out at 1.44.
Consider `COc1cc([C@@H]2c3cc4c(cc3[C@H](O)[C@H]3COC(=O)[C@H]23)OCO4)cc(OC)c1OC` [Podophyllotoxin], for which the “% Pdx1+ Ins1-low” value turned out to be 1.02.
As for `CCNC1(c2cccs2)CCCCC1=O` (configuration not stated) [Tiletamine hydrochloride], the “% Pdx1+ Ins1-low” value came to 0.707.
With `CCC1(c2cccc(O)c2)CCCCN(C)C1` (configuration not stated) [Meptazinol hydrochloride], the “% Pdx1+ Ins1-low” value was determined as 1.31.
Then `C[C@@H]1CC[C@H]2[C@@H](C)C(=O)O[C@@H]3O[C@@]4(C)CC[C@@H]1[C@]32OO4` [Artemisinin], with 1.08.
For `CC[C@H]1[C@@H]2C[C@H]3[C@@H]4N(C)c5ccccc5[C@]45C[C@@H]([C@@H]2[C@H]5O)N3[C@@H]1O` [Ajmaline] the value was 0.905; for `CS(=N)(=O)CC[C@H](N)C(=O)O` (some centres not stated) [Methionine sulfoximine (L)], 1.17.
Regarding `COc1ccc(C[C@H]2NC[C@H](O)[C@H]2OC(C)=O)cc1` [Anisomycin], the “% Pdx1+ Ins1-low” value was found to be 1.23.
In the case of `CN1[C@@H](C[C@@H](O)c2ccccc2)CCC[C@H]1C[C@H](O)c1ccccc1` [Lobelanidine hydrochloride], the “% Pdx1+ Ins1-low” value was determined as 0.952.
On to `COc1ccc2c(c1)[nH]c1c(C)nccc12` [Harmine hydrochloride], for which the “% Pdx1+ Ins1-low” value turned out to be 1.31.
`NCCc1c[nH]c2ccc(O)cc12` [Serotonin hydrochloride]: the “% Pdx1+ Ins1-low” value came to 0.637.
Consider `COc1ccc(Cc2nccc3cc(OC)c(OC)cc23)cc1OC` [Papaverine hydrochloride], for which the “% Pdx1+ Ins1-low” value is 0.861.
Take `CCC1(CC)C(=O)C=CNC1=O` [Pyrithyldione]: the “% Pdx1+ Ins1-low” value came to 1.31.
In the case of `C[C@@H]1NCCc2cc(O)c(O)cc21` [Salsolinol hydrobromide], the “% Pdx1+ Ins1-low” value was 1.34.
Take `CC(C)(C)NCC(O)c1cc(Cl)c(N)c(Cl)c1` (configuration not stated) [Clenbuterol hydrochloride]: the “% Pdx1+ Ins1-low” value came to 1.13.
For `Fc1ccc(C(OCCN2CCN(CCCc3ccccc3)CC2)c2ccc(F)cc2)cc1`, the “% Pdx1+ Ins1-low” value was found to be 0.735.
Consider `COC(=O)C1=CCCN(C)C1` [Arecoline hydrobromide], for which the “% Pdx1+ Ins1-low” value turned out to be 0.785.
Take `CN1C[C@H](CO)C=C2c3cccc4[nH]cc(c34)C[C@H]21` [Lysergol]: the “% Pdx1+ Ins1-low” value was determined as 0.941.
`CC(=O)O[C@H]1C[C@H](O[C@H]2[C@@H](O)C[C@H](O[C@H]3[C@@H](O)C[C@H](O[C@H]4CC[C@@]5(C)[C@H](CC[C@@H]6[C@@H]5C[C@@H](O)[C@]5(C)[C@@H](C7=CC(=O)OC7)CC[C@]65O)C4)O[C@@H]3C)O[C@@H]2C)O[C@H](C)[C@H]1O[C@@H]1O[C@H](CO)[C@@H](O)[C@H](O)[C@H]1O` [Lanatoside C]: the “% Pdx1+ Ins1-low” value was 1.
For `COc1ccc(CCN2CCC(Nc3nc4ccccc4n3Cc3ccc(F)cc3)CC2)cc1` [Astemizole], the “% Pdx1+ Ins1-low” value turned out to be 0.724.
Consider `C/C=C1\C[C@@H](C)[C@](O)(CO)C(=O)OCC2=CCN3CC[C@@H](OC1=O)[C@@H]23` [Retrorsine], for which the “% Pdx1+ Ins1-low” value was found to be 1.1.
Turning to `CC1=C2[C@H]3OC(=O)[C@@H](C)[C@@H]3CC[C@@]2(C)C=CC1=O` [alpha-Santonin], the “% Pdx1+ Ins1-low” value was found to be 0.594.
For `C[C@]12N[C@H](Cc3ccccc31)c1ccccc12` [Dizocilpine maleate], the “% Pdx1+ Ins1-low” value was 0.845.
Then `C[N+]1([O-])[C@@H]2C[C@@H](OC(=O)[C@H](CO)c3ccccc3)C[C@H]1[C@@H]1O[C@@H]12` (some centres not stated) [Scopolamin-N-oxide hydrobromide], with 1.33; and `O[C@@H]1CCCC[C@H]1N1CCC(c2ccccc2)CC1` [L(-)-vesamicol hydrochloride], with 1.13; and `c1cncc(C2=NCCC2)c1` [Myosmine], with 1.01.
For `Cc1nccc2c1[nH]c1ccccc12` [Harmane hydrochloride] the value was 1.14; for `CCN1C[C@]2(COC)[C@H](O)C[C@H](OC)[C@@]34[C@@H]5C[C@@]6(O)[C@H](OC(=O)c7ccccc7)[C@@H]5[C@@](OC(C)=O)([C@@H]([C@H](OC)[C@H]23)[C@@H]14)[C@@H](O)[C@@H]6OC` [Aconitine], 0.703.
With `O=[N+]([O-])c1cc([As](=O)(O)O)ccc1O` [Roxarsone], the “% Pdx1+ Ins1-low” value stood at 0.822.
As to `CCC1(c2ccc(N)cc2)CCC(=O)NC1=O` (configuration not stated) [Glutethimide, para-amino], the “% Pdx1+ Ins1-low” value was determined as 0.557.
Take `CC[C@@]1([C@@H]2O[C@@H]([C@H]3O[C@@](O)(CO)[C@H](C)C[C@@H]3C)C[C@@H]2C)CC[C@H]([C@]2(C)CC[C@]3(C[C@H](O)[C@@H](C)[C@@H]([C@@H](C)[C@@H](OC)[C@H](C)C(=O)O)O3)O2)O1` [Monensin sodium salt]: the “% Pdx1+ Ins1-low” value turned out to be 0.997.
Consider `CN(C)C(=O)Oc1cc(OC(=O)N(C)C)cc(C(O)CNC(C)(C)C)c1` (configuration not stated) [Bambuterol hydrochloride], for which the “% Pdx1+ Ins1-low” value came to 1.43.
For `CCn1cc(C(=O)O)c(=O)c2cc3c(cc21)OCO3` [Oxolinic acid], the “% Pdx1+ Ins1-low” value was determined as 0.911.
Regarding `C[C@]12CC[C@H](O)C[C@@H]1CC[C@@H]1[C@@H]2CC[C@]2(C)C(=O)CC[C@@H]12` [Epiandrosterone], the “% Pdx1+ Ins1-low” value is 0.844.
On to `NCC(O)c1ccc(O)cc1` (racemic) [(+,-)-Octopamine hydrochloride], for which the “% Pdx1+ Ins1-low” value worked out at 1.03.
`C[C@@H]1O[C@@H](O[C@H]2C[C@@H](O)[C@]3(CO)[C@H]4[C@H](O)C[C@]5(C)[C@@H](C6=CC(=O)OC6)CC[C@]5(O)[C@@H]4CC[C@]3(O)C2)[C@H](O)[C@H](O)[C@H]1O` [Strophantine octahydrate]: the “% Pdx1+ Ins1-low” value was determined as 1.03.
Turning to `COc1ccc2c3c([nH]c2c1)C(C)=NCC3` [Harmaline hydrochloride dihydrate], the “% Pdx1+ Ins1-low” value came to 1.25.
For `CN1[C@@H]2CC[C@H]1C[C@@H](OC1c3ccccc3CCc3ccccc31)C2` [Deptropine citrate] the value was 1.17; for `O=C1C=C2C=C[C@@H]3C[C@@]2(O1)[C@H]1CCCCN31` [Securinine], 0.577.
With `COc1ccc2[nH]c3c(c2c1)CCN=C3C` [Methoxy-6-harmalan], the “% Pdx1+ Ins1-low” value came out at 1.48.
`CC(C)[C@@]1(NC(=O)[C@@H]2C[C@@H]3c4cccc5[nH]cc(c45)C[C@H]3N(C)C2)O[C@@]2(O)[C@@H]3CCCN3C(=O)[C@H](Cc3ccccc3)N2C1=O` [Dihydroergocristine mesylate]: the “% Pdx1+ Ins1-low” value stood at 0.902.
On to `COc1ccn(C)c(=O)c1C#N` [Ricinine], for which the “% Pdx1+ Ins1-low” value was 1.05.
For the molecule `CC[C@H](C)[C@H]1O[C@]2(C=C[C@@H]1C)C[C@@H]1C[C@@H](C/C=C(\C)[C@@H](O[C@H]3C[C@H](OC)[C@@H](O[C@H]4C[C@H](OC)[C@@H](O)[C@H](C)O4)[C@H](C)O3)[C@@H](C)/C=C/C=C3\CO[C@@H]4[C@H](O)C(C)=C[C@@H](C(=O)O1)[C@]34O)O2.CO[C@H]1C[C@H](O[C@H]2[C@H](C)O[C@@H](O[C@@H]3/C(C)=C/C[C@@H]4C[C@@H](C[C@]5(C=C[C@H](C)[C@@H](C(C)C)O5)O4)OC(=O)[C@@H]4C=C(C)[C@@H](O)[C@H]5OC/C(=C\C=C\[C@@H]3C)[C@]54O)C[C@@H]2OC)O[C@@H](C)[C@@H]1O` [Avermectin B1], the “% Pdx1+ Ins1-low” value was 0.893.
Then `C[C@]12CCC(=O)C=C1CC[C@@H]1[C@@H]2C(=O)C[C@]2(C)C(=O)CC[C@@H]12` [Adrenosterone], with 0.571; and `C[N+]1(C)CCOC(O)(c2ccc(-c3ccc(C4(O)C[N+](C)(C)CCO4)cc3)cc2)C1` (configuration not stated) [Hemicholinium bromide], with 1.1; and `CN(C)Cc1c[nH]c2ccccc12` [Gramine], with 0.709.
As to `O=C(O)CCCc1ccc(N(CCCl)CCCl)cc1` [Chlorambucil], the “% Pdx1+ Ins1-low” value was determined as 0.813.
For `CCCN1C[C@H](CSC)C[C@@H]2c3cccc4[nH]cc(c34)C[C@H]21` [Pergolide mesylate], the “% Pdx1+ Ins1-low” value was 1.22.
Consider `CCCCc1ccc(C(=O)O)nc1` [Fusaric acid], for which the “% Pdx1+ Ins1-low” value came to 0.782.
On to `CC[C@@]1(O)C(=O)OCc2c1cc1n(c2=O)Cc2cc3ccccc3nc2-1` [Camptothecine (S,+)], for which the “% Pdx1+ Ins1-low” value came to 0.942.
For the molecule `CCC(=O)O[C@@](Cc1ccccc1)(c1ccccc1)[C@@H](C)CN(C)C` [Levopropoxyphene napsylate], the “% Pdx1+ Ins1-low” value is 0.84.
In the case of `c1ccc2nc(N3CCNCC3)ccc2c1` [Quipazine dimaleate salt], the “% Pdx1+ Ins1-low” value was found to be 1.34.
For `C[N+](C)(C)CCCCCCCCCC[N+](C)(C)C` [Decamethonium bromide] the value was 0.782.
Regarding `C[N+]1(C)[C@@H]2CC[C@H]1C[C@@H](OC(=O)C(CO)c1ccccc1)C2` (some centres not stated) [Methylatropine nitrate], the “% Pdx1+ Ins1-low” value stood at 0.519.
`CN1C[C@H](C(=O)N[C@]2(C)O[C@@]3(O)[C@@H]4CCCN4C(=O)[C@H](Cc4ccccc4)N3C2=O)C[C@@H]2c3cccc4[nH]cc(c34)C[C@H]21` [Dihydroergotamine tartrate]: the “% Pdx1+ Ins1-low” value turned out to be 0.822.
For `CC(C)N(CCC(C(N)=O)(c1ccccc1)c1ccccn1)C(C)C` (configuration not stated) [Disopyramide], the “% Pdx1+ Ins1-low” value was 0.912.
As for `C[C@H](N)[C@H](O)c1ccc(O)c(O)c1` [Levonordefrin], the “% Pdx1+ Ins1-low” value came out at 0.69.
As to `CC[C@H]1CN2CCc3cc(OC)c(OC)cc3[C@@H]2C[C@@H]1C[C@H]1NCCc2cc(O)c(OC)cc21` [Cephaeline dihydrochloride heptahydrate], the “% Pdx1+ Ins1-low” value came out at 1.09.
For `CCN1C[C@]2(C)CC[C@H](OC)[C@@]34C1[C@]1(OCO[C@@]15C[C@H](OC)[C@H]1C[C@]3(O)[C@@H]5[C@H]1OC)[C@@H](OC(C)=O)[C@H]24` [Deltaline], the “% Pdx1+ Ins1-low” value worked out at 0.823.
